# Laboratory results as given in PMC5014167.
# Results are given in words; binding and its absence hold for the method and conditions named. In cells and extracts the contact can be indirect. Some entries that bind do so weakly or less than the wild type. Sequences can lack the tags named with a protein.
# T1: GFP-fused BOP1 (GFP:BOP1) (Arabidopsis) (UniProt F4IH25)
# T1 sequence: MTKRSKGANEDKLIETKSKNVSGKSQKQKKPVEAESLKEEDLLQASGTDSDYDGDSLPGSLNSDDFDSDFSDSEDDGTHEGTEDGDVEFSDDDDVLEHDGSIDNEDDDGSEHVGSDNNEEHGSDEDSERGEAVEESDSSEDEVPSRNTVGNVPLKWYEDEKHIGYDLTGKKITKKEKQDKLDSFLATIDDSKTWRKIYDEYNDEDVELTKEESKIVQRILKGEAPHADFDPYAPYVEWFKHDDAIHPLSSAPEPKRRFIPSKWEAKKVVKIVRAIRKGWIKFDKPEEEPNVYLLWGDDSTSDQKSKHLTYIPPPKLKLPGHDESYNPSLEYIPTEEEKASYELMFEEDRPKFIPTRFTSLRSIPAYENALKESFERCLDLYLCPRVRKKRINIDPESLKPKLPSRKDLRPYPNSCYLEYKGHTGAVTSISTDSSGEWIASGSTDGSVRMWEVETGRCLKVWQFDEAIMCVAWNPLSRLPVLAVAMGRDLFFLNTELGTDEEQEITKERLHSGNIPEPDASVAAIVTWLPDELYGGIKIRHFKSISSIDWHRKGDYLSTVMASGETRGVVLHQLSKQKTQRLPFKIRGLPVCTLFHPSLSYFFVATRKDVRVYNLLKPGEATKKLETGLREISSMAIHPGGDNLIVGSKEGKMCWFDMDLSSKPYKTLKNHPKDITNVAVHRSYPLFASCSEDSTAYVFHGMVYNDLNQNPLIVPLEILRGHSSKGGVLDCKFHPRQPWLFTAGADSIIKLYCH
# T2: GFP-fused WDR12 (GFP:WDR12) (Arabidopsis) (UniProt Q9LF27)
# T2 sequence: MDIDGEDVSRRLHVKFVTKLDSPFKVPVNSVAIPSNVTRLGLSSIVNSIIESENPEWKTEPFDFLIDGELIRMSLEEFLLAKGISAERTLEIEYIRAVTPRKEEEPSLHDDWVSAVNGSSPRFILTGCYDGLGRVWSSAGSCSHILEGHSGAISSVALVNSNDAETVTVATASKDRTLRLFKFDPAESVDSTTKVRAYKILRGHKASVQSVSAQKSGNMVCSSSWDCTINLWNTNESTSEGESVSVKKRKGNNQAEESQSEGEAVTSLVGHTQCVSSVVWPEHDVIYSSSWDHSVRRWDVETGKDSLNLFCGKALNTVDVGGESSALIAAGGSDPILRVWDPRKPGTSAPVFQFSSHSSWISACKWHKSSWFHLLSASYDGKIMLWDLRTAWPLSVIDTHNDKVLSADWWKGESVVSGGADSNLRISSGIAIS
# B1: Flag-fused PES (PES:Flag) (protein, UniProt Q9LYK7 1-590)
# chain: MPKHYRPTGKKKEGNAARYMTRSQALKHLQVNLNLFRRLCIVKGIFPREPKKKIKGNHHTYYHVKDIAFLMHEPLLEKFREIKTYQKKVKKAKAKKNEELARLLLTRQPTYKLDRLIRERYPTFIDALRDLDDCLTMVHLFAVLPASDRENLEVKRVHNCRRLTHEWQAYISRSHALRKVFVSVKGIYYQAEIEGQKITWLTPHAIQQVFTNDVDFGVLLTFLEFYETLLAFINFKLYHSLNVKYPPILDSRLEALAADLYALSRYIDASSRGMAVEPKVDASFSSQSNDREESELRLAQLQHQLPSSEPGALMHLVADNNKEVEEDEETRVCKSLFKDLKFFLSREVPRESLQLVITAFGGMVSWEGEGAPFKEDDESITHHIIDKPSAGHLYLSRVYVQPQWIYDCVNARIILPTEKYLVGRIPPPHLSPFVDNEAEGYVPDYAETIKRLQAAARNEVLPLPGVGKEDLEDPQNLLYAGVMSRAEEAEAAKNKKKMAAQEKQYHEELKMEINGSKDVVAPVLAEGEGEESVPDAMQIAQEDADMPKVLMSRKKRKLYDAMKISQSRKRSGVEIIEQRKKRLNDTQPSS
# What was measured:
# [1] = target: T1, GFP-fused BOP1 (GFP:BOP1) (Arabidopsis); experiment: co-IP; PES:Flag co-expressed with GFP fusions in N. benthamiana leaves by agroinfiltration; cell extracts immunoprecipitated with anti-GFP antibodies, co-precipitated PES:Flag detected by immunoblot with anti-Flag antibodies
# [2] = target: T2, GFP-fused WDR12 (GFP:WDR12) (Arabidopsis); experiment: as above
binder,measurement,setting,value
B1,binding,[1],binds
same,binding,[2],binds
